Reference: PubChem BioAssay AID1224826 (NIAID, 2016)
In all, the deposit lists about 17,000 reagents; this is a random part of them. Of all reagents, about 1,110 (6.6%) are marked active. 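Active means lowered or raised reporter signal; replicate intensities are raw and not normalised per plate.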 Not all columns of the deposit are shown. Reagent sequences are not shown.

- Aim: 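Knock-downs that raise or lower Tnf reporter signal after endotoxin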 (primary screen)
- Cell system: RAW264.7 G9 macrophages from mouse bearing reporters for p65 (GFP) and the Tnf promoter (mCherry)
- Reagent: siRNA pool against mouse genes, 100 nM
- Time to read-out: 16 h of LPS stimulation, after 2 days of siRNA transfection
- Challenge: bacterial lipopolysaccharide (Salmonella minnesota R595), 10 ng/ml
- Measurement: 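Nuclear mCherry signal of the Tnf promoter reporter measured by imaging after background removal, scaled to each plate median and turned into robust z-scores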
- Scale: Tnf reporter robust z-score: higher = stronger Tnf promoter reporter signal after LPS
- Call rule: 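Called active when robust z-score is at most -1.3, matching the median of the Tlr4 knock-down control, or over 3; control wells and wells with under 50 cells never active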
- Calls: active = Tnf reporter clearly lowered or raised; inactive = no clear change in Tnf reporter

Knock-down of Men1 gave: Tnf reporter robust z-score -0.95; fewer than 50 cells in well enough cells in well; inactive. For Plekha8, the values are Tnf reporter robust z-score -0.68; fewer than 50 cells in well enough cells in well; inactive. Against Pkd1l2, the values are Tnf reporter robust z-score -1.16; fewer than 50 cells in well enough cells in well; inactive. After knock-down of Cep68, the screen gave Tnf reporter robust z-score -0.3; fewer than 50 cells in well enough cells in well; inactive. Against Prune2 the deposit lists Tnf reporter robust z-score 0.39; fewer than 50 cells in well enough cells in well; inactive. For Etv2, the values are Tnf reporter robust z-score 1.46; fewer than 50 cells in well enough cells in well; inactive.

Depletion of AY074887 gave: Tnf reporter robust z-score -0.85; fewer than 50 cells in well enough cells in well; inactive. Atp2a1 scored fewer than 50 cells in well fewer than 50 cells per well; well left out of calls; inactive. Against Nhlh1 the deposit lists Tnf reporter robust z-score -1.29; fewer than 50 cells in well enough cells in well; inactive. For Hus1b, the entry reads Tnf reporter robust z-score 1; fewer than 50 cells in well enough cells in well; inactive. For Ubtd2, the entry reads Tnf reporter robust z-score -0.69; fewer than 50 cells in well enough cells in well; inactive. Spock2 scored Tnf reporter robust z-score 2.78; fewer than 50 cells in well enough cells in well; inactive.

Silencing of Vmn1r217 gave: Tnf reporter robust z-score -0.87; fewer than 50 cells in well enough cells in well; inactive. Knock-down of Or6c35 gave: fewer than 50 cells in well fewer than 50 cells per well; well left out of calls; inactive.
